The list does not hold the whole screen: it is rich in T/C values a quarter to a half above the control, in often repeated tests (any T/C) and in doses without a T/C. Further doses and runs are listed elsewhere. T/C is the treated group as % of the vehicle group. Some doses have a count of surviving animals in place of a T/C: the source holds a T/C of zero for them, seemingly a mark for toxic or unscored doses. Some survivor counts are full or nearly so, which does not show that the dose was tolerated: survival well below the control is almost never listed, so the zero probably covers shortened survival too. Survivors were counted at the toxicity check, usually on the fifth day, unless a day is given; later deaths do not show. Schedule codes are those of the source, taken here to give the interval after Q, in days (D) or hours (H), and the number of doses after X. Some structures stand for samples that the source files as different forms (salt, stereo form or complex); doses refer to the form tested. Some entries hold several experiments; the results are listed from low to high. Where survival is the endpoint, this PubChem deposit counts one and a half times the control or more as active, and values a quarter to a half above the control carry no call in these data; other NCI protocols may use other cut-offs. Some T/C values are followed by the survivors on the day toxicity was checked, most often the fifth; where none is given, no animal had died by that day. Square brackets hold non-standard residues; d marks the D form. Peptide text beside a SMILES is read from it. * marks the point of attachment. ξ: configuration not given here. ξF = NC(Cc1ccccc1)C(=O)O; Cbz = O=C(OCc1ccccc1)*; Sar = CNCC(=O)O
Test system: BDF1 mice, B16 melanoma ip, median survival T/C
Assay: NCI In Vivo Anticancer Drug Screen. Data for tumor model B16 Melanoma (intraperitoneal) in B6D2F1 (BDF1) mice
Details: T/C endpoint: median survival time, higher T/C = longer survival
Outline: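 Read-out: survival or tumor size, given as treated/control ratio. Controls received vehicle only; animals bore transplantable tumors.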

[1] = dose: 400.0 mg/kg/injection, schedule: Q01DX009 (ip), vehicle: Klucel (hydroxypropylcellulose) (HPC)
[2] = dose: 50.0 mg/kg/injection, schedule: Q01DX009 (ip), vehicle: Klucel (hydroxypropylcellulose) (HPC)
[3] = dose: 400.0 mg/kg/injection, schedule: Q01DX009 (ip), vehicle: saline
[4] = dose: 25.0 mg/kg/injection, schedule: Q01DX009 (ip), vehicle: Klucel (hydroxypropylcellulose) (HPC)
[5] = dose: 200.0 mg/kg/injection, schedule: Q01DX009 (ip), vehicle: saline with Tween-80
[6] = dose: 400.0 mg/kg/injection, schedule: Q01DX009 (ip), vehicle: saline with Tween-80
[7] = dose: 200.0 mg/kg/injection, schedule: Q01DX009 (ip), vehicle: saline
[8] = dose: 100.0 mg/kg/injection, schedule: Q01DX009 (ip), vehicle: saline with Tween-80

In the case of `Cc1cc(OCc2nc(N)nc(N)c2-c2ccc(Cl)c(Cl)c2)ccc1NS(=O)(=O)c1cccc(S(=O)(=O)F)c1`, the T/C (dose: 176.0 mg/kg/injection, schedule: Q04DX003 (ip), vehicle: saline) is reported as 133 % of control and the T/C (dose: 264.0 mg/kg/injection, schedule: Q04DX003 (ip), vehicle: saline) is reported as 136 % of control.

`O=C1OC(=O)C2C1C1C3C=CC3C1C21C=C1` (stereo unspecified) was tested, and the survivor count [1] was 0 of 10.

In the case of `NC(=O)c1ncn2c(=O)n(CCCl)nnc12`, the T/C (dose: 3.12 mg/kg/injection, schedule: Q01DX009 (ip), vehicle: saline) is reported as 144 % of control.

In the case of `CCOC(=O)/C=C(\CBr)OC`, the survivor count [2] is reported as 7 of 10.

For `CC1CN1P(=O)(OCCC#N)N1CC1C` (stereo unspecified), the T/C [3] was 136 % of control.

For `Cc1ccc(N2CSC(=S)N(c3ccc(C)cc3)C2)cc1`, the survivor count [1] was 10 of 10.

With `O=C(Nc1ccc(F)cc1)Nc1nccs1` the survivor count [1] was 6 of 10.

For `CCC1=C[C@H]2CN(CCc3c([nH]c4ccccc34)[C@@](C(=O)OC)(c3cc4c(cc3OC)N(C)[C@H]3[C@@](O)(C(=O)NC)[C@H](OC(C)=O)[C@]5(CC)C=CCN6CC[C@]43[C@@H]65)C2)C1`, the T/C (dose: 0.03 mg/kg/injection, schedule: Q01DX009 (ip), vehicle: water) was 132 % of control, the T/C (dose: 0.06 mg/kg/injection, schedule: Q01DX009 (ip), vehicle: water) was 137 % of control and the T/C (dose: 0.25 mg/kg/injection, schedule: Q04DX003 (ip), vehicle: water) was 138 % of control. For the same compound, the T/C (dose: 0.4 mg/kg/injection, schedule: Q01DX009 (ip), vehicle: Klucel (hydroxypropylcellulose) (HPC)) was 129 % of control, the survivor count (dose: 0.5 mg/kg/injection, schedule: Q01DX009 (ip), vehicle: water) was 10 of 10 and the T/C (dose: 0.8 mg/kg/injection, schedule: Q01DX009 (ip), vehicle: Klucel (hydroxypropylcellulose) (HPC)) was 143 % of control [5 of 6 alive]. For the same compound, the survivor count (dose: 1.0 mg/kg/injection, schedule: Q01DX009 (ip), vehicle: water) was 7 of 10 and 9 of 10, the T/C (dose: 1.0 mg/kg/injection, schedule: Q04DX003 (ip), vehicle: water) was 137 % of control [9 of 10 alive] and the survivor count (dose: 2.0 mg/kg/injection, schedule: Q04DX003 (ip), vehicle: water) was 10 of 10. For the same compound, the survivor count (dose: 3.2 mg/kg/injection, schedule: Q01DX009 (ip), vehicle: Klucel (hydroxypropylcellulose) (HPC)) was 6 of 6, the survivor count (dose: 6.4 mg/kg/injection, schedule: Q01DX009 (ip), vehicle: Klucel (hydroxypropylcellulose) (HPC)) was 4 of 6 and the survivor count (dose: 12.8 mg/kg/injection, schedule: Q01DX009 (ip), vehicle: Klucel (hydroxypropylcellulose) (HPC)) was 2 of 6.

`COc1cc(C=Nc2cccc(Br)c2)ccc1N(CCCl)CCCl` was tested, and the T/C (dose: 1.6 mg/kg/injection, schedule: Q01DX009 (ip), vehicle: saline with Tween-80) was 125 % of control, the T/C (dose: 3.12 mg/kg/injection, schedule: Q01DX009 (ip), vehicle: saline with Tween-80) was 145 % of control and the T/C (dose: 6.25 mg/kg/injection, schedule: Q01DX009 (ip), vehicle: Klucel (hydroxypropylcellulose) (HPC)) was 142 % of control [9 of 10 alive]. The T/C [4] was 131 % of control and the survivor count (dose: 25.0 mg/kg/injection, schedule: Q01DX009 (ip), vehicle: saline with Tween-80) was 10 of 10.

For `COc1ccc2c(c1[N+](=O)[O-])CC[C@@H]1[C@@H]2CC[C@]2(C)C(=O)CC[C@@H]12`, the survivor count [5] was 10 of 10, the survivor count [6] was 10 of 10 and the survivor count (dose: 800.0 mg/kg/injection, schedule: Q01DX009 (ip), vehicle: saline with Tween-80) was 10 of 10.

With `CSc1nc2cc(C)c(C)cc2[nH]1` the survivor count [5] was 10 of 10 and the survivor count [6] was 10 of 10.

`CCOC(=O)c1c(N)[nH]c(SSc2[nH]c(N)c(C(=O)OCC)c2C(=O)OCC)c1C(=O)OCC` was tested, and the survivor count (dose: 150.0 mg/kg/injection, schedule: Q01DX009 (ip), vehicle: saline) was 10 of 10.

In the case of `CCOC(=O)C1C(=O)C(CN(CCCl)CCCl)C(=O)C(C(=O)OCC)C1c1ccc(O)cc1` (stereo unspecified), the T/C (dose: 3.12 mg/kg/injection, schedule: Q01DX009 (ip), vehicle: Klucel (hydroxypropylcellulose) (HPC)) is reported as 131 and 144 % of control, the T/C (dose: 12.5 mg/kg/injection, schedule: Q01DX009 (ip), vehicle: Klucel (hydroxypropylcellulose) (HPC)) is reported as 129 % of control and the T/C [4] is reported as 146 and 147 % of control. The survivor count [2] was 10 of 10.

In the case of `c1ccc2c(c1)CNNC2`, the survivor count (dose: 25.0 mg/kg/injection, schedule: Q01DX009 (ip), vehicle: saline) is reported as 7 of 10 and the survivor count [3] is reported as 9 of 10.

With `O=C(O)c1cc2ccccc2cn1` the survivor count [7] was 1 of 10.

With `CCCCNC(=O)Nc1cc(C)ccc1C` the survivor count [1] was 5 of 10.

`COc1cc2cc(c1Cl)N(C)C(=O)CC(OC(=O)C(C)C)C1(C)OC1C(C)C1CC(O)(NC(=O)O1)C(OC)/C=C/C=C(C)C2` (stereo unspecified) was tested, and the T/C (dose: 4.0 micrograms/kg/injection, schedule: Q01DX009 (ip), vehicle: saline + alcohol) was 141 % of control, the T/C (dose: 6.2 micrograms/kg/injection, schedule: Q01DX009 (ip), vehicle: saline + alcohol) was 129 % of control [9 of 10 alive] and the T/C (dose: 6.25 micrograms/kg/injection, schedule: Q01DX009 (ip), vehicle: saline + alcohol) was 139 % of control. The T/C (dose: 12.5 micrograms/kg/injection, schedule: Q01DX009 (ip), vehicle: saline + alcohol) was 144 % of control, the survivor count (dose: 50.0 micrograms/kg/injection, schedule: Q01DX009 (ip), vehicle: saline + alcohol) was 10 of 10 and the survivor count (dose: 100.0 micrograms/kg/injection, schedule: Q01DX009 (ip), vehicle: saline + alcohol) was 1 of 10 and 10 of 10. For the same compound, the survivor count (dose: 200.0 micrograms/kg/injection, schedule: Q01DX009 (ip), vehicle: saline + alcohol) was 0 of 10 and 10 of 10.

`CN(CC(=O)NC(Cc1ccccc1)C(=O)O)C(=O)OCc1ccccc1` (stereo unspecified) (Cbz-[Sar]-[ξF]-OH) was tested, and the survivor count [6] was 10 of 10.

`CCCCCCCCCCCCCCC/C([O-])=N/[N+](C)(C)CC(C)O` (stereo unspecified) was tested, and the survivor count (dose: 400.0 mg/kg/injection, schedule: Q01DX001 (ip), vehicle: saline) was 10 of 10 and the survivor count (dose: 800.0 mg/kg/injection, schedule: Q01DX001 (ip), vehicle: saline) was 3 of 10.

For `NC(=S)N/N=C/c1cc(-c2cccc(N)c2)ccn1`, the T/C (dose: 3.13 mg/kg/injection, schedule: Q01DX009 (ip), vehicle: saline) was 131 % of control, the T/C (dose: 6.25 mg/kg/injection, schedule: Q01DX009 (ip), vehicle: saline) was 143 % of control and the T/C (dose: 9.4 mg/kg/injection, schedule: Q04DX003 (ip), vehicle: saline) was 138 % of control. The T/C (dose: 12.5 mg/kg/injection, schedule: Q01DX009 (ip), vehicle: saline with Tween-80, evaluated on day 45) was 133 % of control, the T/C (dose: 12.5 mg/kg/injection, schedule: Q01DX009 (ip), vehicle: saline with Tween-80, evaluated on day 60) was 134 % of control and the T/C (dose: 18.8 mg/kg/injection, schedule: Q04DX003 (ip), vehicle: saline) was 144 % of control. The T/C (dose: 25.0 mg/kg/injection, schedule: Q01DX009 (ip), vehicle: saline with Tween-80, evaluated on day 45) was 138 % of control, the T/C (dose: 25.0 mg/kg/injection, schedule: Q01DX009 (ip), vehicle: saline with Tween-80, evaluated on day 60) was 128 and 133 % of control and the T/C (dose: 50.0 mg/kg/injection, schedule: Q01DX009 (ip), vehicle: saline with Tween-80, evaluated on day 45) was 144 % of control. For the same compound, the T/C (dose: 50.0 mg/kg/injection, schedule: Q01DX009 (ip), vehicle: saline with Tween-80, evaluated on day 60) was 131 and 147 % of control, the T/C (dose: 50.0 mg/kg/injection, schedule: Q01DX009 (ip), vehicle: saline) was 148 % of control and the T/C (dose: 75.0 mg/kg/injection, schedule: Q01DX009 (ip), vehicle: saline with Tween-80) was 144 % of control.

`S=C=NCC(Br)CBr` (stereo unspecified) was tested, and the survivor count [4] was 7 of 10.

In the case of `C=CC(=O)NCNC(=O)C=C`, the survivor count [5] is reported as 2 of 10, the survivor count [7] is reported as 10 of 10 and the survivor count [6] is reported as 0 of 10. The survivor count [3] was 0 of 10.

With `CCCCNC(=O)Nc1ccc(CC)cc1` the survivor count [1] was 6 of 10.

In the case of `Cn1c(O)c(C=N)c(=O)n(C)c1=O`, the survivor count (dose: 100.0 mg/kg/injection, schedule: Q01DX009 (ip), vehicle: other) is reported as 8 of 10.

In the case of `CCNc1nc(NCC)nc(OC)n1`, the T/C [8] is reported as 125 % of control.

`COc1cc2c(c3c1c(=O)c1ccccc1n3C)C=CC(C)(C)O2` was tested, and the survivor count [8] was 5 of 6 and the survivor count [5] was 4 of 6.
